From patent US20220380784

Columns and labels:
M2.BsaI = molecular target: T1, M2.BsaI (UniProt Q6SPF5); test: activity assay; details: methylation blocks BsaI cleavage; 160 uM SAM, 37 C; purified recombinant protein; protein details: C-terminal His (pET-30b)
T1 sequence (looked up, limits assumed): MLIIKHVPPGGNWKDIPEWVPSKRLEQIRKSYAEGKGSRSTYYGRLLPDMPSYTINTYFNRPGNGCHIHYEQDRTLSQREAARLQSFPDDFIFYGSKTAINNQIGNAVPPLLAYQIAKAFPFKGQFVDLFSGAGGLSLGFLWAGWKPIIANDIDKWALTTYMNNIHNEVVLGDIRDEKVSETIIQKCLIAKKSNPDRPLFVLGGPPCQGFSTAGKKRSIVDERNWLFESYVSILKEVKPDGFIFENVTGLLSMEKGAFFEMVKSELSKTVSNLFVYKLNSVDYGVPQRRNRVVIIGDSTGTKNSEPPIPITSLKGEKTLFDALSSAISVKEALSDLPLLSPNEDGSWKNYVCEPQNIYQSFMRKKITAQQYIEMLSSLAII

[1] = test system: M2.Eco31I deletion of first 7 amino acids (Escherichia coli); test: activity assay; details: methylation blocks BsaI cleavage; 160 uM SAM, 37 C; purified recombinant protein; protein details: C-terminal His (pET-30b)
[2] = test system: M.Csp205I/S.Csp205I type I methylase; test: activity in cells; details: standard BsaI site not protected; protein in cells; protein details: co-expressed in E. coli DH10B; only the site is given

Which “activity on this sequence” value (M2.BsaI) does the source give for “GGTCTC (double strand) [standard BsaI site]” here?
Its value is “active”.

What about the “activity on this sequence” value [1] of the same sequence?
The value was “active”.

And the “activity on this sequence” value [2]?
Its value is “not active”.

For part of these data: Protein sequences can lack the tags named with them. For part of these data: For at least one entry, the source does not settle the construct or the ends of the probe. For part of these data: A negative result means that nothing was seen under these conditions.
